PubChem BioAssay AID686943 | Drosophila RNAi Screening Center | 2013
Test: 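Search across the genome for regulators of signalling from receptor tyrosine kinase to ERK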 (primary screen). Cell system: Drosophila S2R+ haemocyte-like cells expressing YFP-tagged ERK (Rolled). Knock-down reagent: long dsRNA against Drosophila genes. Challenge: insulin stimulation versus unstimulated cells; dose and duration not given. Measured: 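Antibody staining for doubly phosphorylated ERK divided by ERK-YFP signal, as plate z-scores, in insulin-treated and untreated cells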. Direction: replicate 1, z-score of dpERK with insulin and replicate 2, z-score of dpERK with insulin: higher = more active ERK per ERK-YFP after insulin.
The deposit covers about 23,000 reagents; below is a random part of those that have a named target and a result. 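Extra replicates exist only for a retested subset of genes; insulin dose and duration not given; both raised and lowered dpERK matter.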 The numbers tell different reagents against one gene apart. A plus sign joins genes that one reagent is predicted to hit. Further read-outs or replicates are left out here. Reagent sequences are not shown. The record does not give: the amount of reagent, the time to read-out.

Target gene | reagent | replicate 1, z-score of dpERK with insulin | replicate 2, z-score of dpERK with insulin
CG6179 (GeneID 32819) | 1 | -1.67 | -0.29
CG12517 (GeneID 34506) | 1 | -1.29 | -0.21
Ir93a (GeneID 42471) | 1 | -0.08 | 0.44
Ir93a (GeneID 42471) | 2 | 0.34 | -0.05
IFT52 (GeneID 33917) | 1 | 0.49 | -0.02
Dus2 (GeneID 32377) | 1 | 0.64 | 0.25
Acp24A4 (GeneID 318936) | 1 | 0.51 | -0.3
Pi3K68D (GeneID 39329) | 1 | -0.25 | -0.15
CG34045 (GeneID 3885656) | 1 | 0.76 | 0.75
CG6435 (GeneID 36894) | 1 | -0.4 | 1.55
CG31871 (GeneID 34463) | 1 | 0.35 | -0.01
CG31871 (GeneID 34463) | 2 | 0.61 | 0.6

Continued (2 carried over from the part before).
Target gene | reagent | replicate 1, z-score of dpERK with insulin | replicate 2, z-score of dpERK with insulin
CG31871 (GeneID 34463) | 1 | 0.35 | -0.01
CG31871 (GeneID 34463) | 2 | 0.61 | 0.6
CG10700 (GeneID 35183) | 1 | 0.52 | 0.69
Polr3K + Tcs1 | 1 | 1.27 | 0.8
CG14683 (GeneID 41278) | 1 | -0.18 | 0.12
CG7992 (GeneID 32917) | 1 | -1.85 | 0.07
dan (GeneID 43023) | 1 | -0.62 | -0.45
kon (GeneID 35104) | 1 | -0.63 | -0.54
CG12773 (GeneID 31082) | 1 | 0.34 | -0.6
ric8a (GeneID 31874) | 1 | -0.16 | -0.08
CG5276 (GeneID 41373) | 1 | 0.94 | 0.18
CG7423 (GeneID 32894) | 1 | 1.15 | -0.32
for (GeneID 44817) | 1 | -1.52 | -1.52
for (GeneID 44817) | 2 | -0.24 | -0.45
